From patent US5393742A, “Preparation for treating renal disease” (MECT Corporation, priority 1990, dated 1995)
The source gives many values for each of these; only a part stands here.

System: Male ddy mice
Assay: Simplified acute toxicity test of N-acetylneuraminates in mice by intravenous injection
Type: in vivo
Method: Simplified acute toxicity test:
A simplified acute toxicity test of N-acetylneuraminates in mice by intravenous injection was carried out as follows.
Lithium-, potassium-, barium- and magnesium- salts of N-acetylneuraminic acid were used (all were from MECT Corporation).
Body weights at the start of the test: 17.7-21.1 g
The number of animals at each level: 3 mice
(3) Room temperature: 23±1° C. - Humidity: 55±7%
The above-mentioned test compounds were dissolved in physiological saline solution to make a 0.2 ml solution per 20 g of body weight in a mouse as an injection fluid and injected into the tail vein. The doses were 500, 1,000 and 2,000 mg/kg.

CC(=O)N[C@H]1[C@H]([C@H](O)[C@H](O)CO)OC(O)(C(=O)O)C[C@@H]1O (some centres unmarked) [Magnesium N-acetylneuraminate]
The number of deaths per day course (1000 mg/kg i.v., 1 hrs): 3
The number of deaths per day course (1000 mg/kg i.v., 3 hrs): 0
The number of deaths per day course (1000 mg/kg i.v., 6 hrs): 0
The number of deaths per day course (1000 mg/kg i.v., 24 hrs): 0
The number of deaths per day course (1000 mg/kg i.v., 2 days): 0
The number of deaths per day course (1000 mg/kg i.v., 3 days): 0
The number of deaths per day course (1000 mg/kg i.v., 4 days): 0
The number of deaths per day course (1000 mg/kg i.v., 5 days): 0
The number of deaths per day course (1000 mg/kg i.v., 6 days): 0
The number of deaths per day course (1000 mg/kg i.v., 7 days): 0
The number of deaths per day course (2000 mg/kg i.v., 1 hrs): 3
The number of deaths per day course (2000 mg/kg i.v., 3 hrs): 0
The number of deaths per day course (2000 mg/kg i.v., 6 hrs): 0
The number of deaths per day course (2000 mg/kg i.v., 24 hrs): 0
The number of deaths per day course (2000 mg/kg i.v., 2 days): 0
The number of deaths per day course (2000 mg/kg i.v., 3 days): 0
The number of deaths per day course (2000 mg/kg i.v., 4 days): 0
The number of deaths per day course (2000 mg/kg i.v., 5 days): 0
The number of deaths per day course (2000 mg/kg i.v., 6 days): 0
The number of deaths per day course (2000 mg/kg i.v., 7 days): 0
